From US20230374087A1, “METHOD TO IMPROVE PROTEIN QUALITY CONTROL” (The Johns Hopkins University, priority 2020, published 2023)

Assay: Cycloheximide (CHX) chase assay of CHIP protein half-life
Format: cell-based, rat
Details: cycloheximide 100 μM, hydrogen peroxide 50 μM

B1: CHIP: endogenous CHIP protein in myocytes expressing only a Myc vector (protein)
chain: MKGKEEKEGGARLGTGGGGSPDKSPSAQELKEQGNRLFVGRKYPEAAACYGRAITRNPLVAVYYTNRALCYLKMQQPEQALADCRRALELDGQSVKAHFFLGQCQLEMESYDEAIANLQRAYSLAKEQRLNFGDDIPSALRIAKKKRWNSIEERRIHQESELHSYLTRLIAAERERELEECQRNHEGHEDDGHIRAQQACIEAKHDKYMADMDELFSQVDEKRKKRDIPDYLCGKISFELMREPCITPSGITYDRKDIEEHLQRVGHFDPVTRSPLTQEQLIPNLAMKEVIDAFISENGWVEDY
CHIP protein half-life (PKG activity blocked by PDE5oe): ~2 h | CHIP protein half-life (myocytes expressing only a Myc vector): ~6 h
